# Assay results

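Viability of UOK109 TFE3-fusion renal carcinoma cells after 48 h of compound exposure, read as ATP luminescence with CellTiter-Glo. Each compound was run as a concentration series, and the potency comes from that titration. The number is the fitted AC50 for loss of viability; a lower value means a more potent compound. All of these compounds are filed inconclusive. An active call needs an area-under-curve z-score below -0.8 in all three TFE3-fusion lines, and an inactive call needs flat class-4 curves in all three.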

Values are in nM. Every entry below has the call inconclusive. These entries are mostly ones the record files as inconclusive; other results of the assay are not listed here. A potency from a partial, single-point or poor curve is only a rough figure. Some entries filed as inconclusive have a full curve. Activity scores are not listed here.

CC1(N2CCC(n3c([C@@H]4CCCNC4)nc4ccccc43)CC2)CCCCCCC1 read Potency 20930 nM (falling, partial curve). For COc1ccc(-c2ccc3c(N4CCOCC4)nc(N4C[C@@H](C)O[C@@H](C)C4)nc3n2)cc1CO [active = Z-AUC below -0.8 in all three lines] the result was Potency 6619 nM (falling, partial curve). With NNCCc1ccccc1 [active = Z-AUC below -0.8 in all three lines] the assay gave Potency 14817 nM (falling, partial curve). With CCN1CCN(C(=O)Cc2ccc(Nc3ncc(F)c(Nc4ccc(C(=O)Nc5ccccc5Cl)cc4)n3)cc2)CC1 the assay gave Potency 14817 nM (falling, partial curve).

With CNC(=O)c1ccc(N2C(=S)N(c3cnc(C#N)c(C(F)(F)F)c3)C(=O)C23CCC3)cc1F [active = Z-AUC below -0.8 in all three lines] the assay gave Potency 935 nM (falling, full curve). Result for CC(=O)O[C@@]12CO[C@H]1C[C@H](O)[C@@]1(C)C(=O)[C@H](O)C3=C(C)[C@@H](O)C[C@@](O)([C@@H](OC(=O)c4ccccc4)[C@@H]21)C3(C)C was Potency 29565 nM (falling, single point). Result for C=C1[C@H](n2cnc3c(=O)[nH]c(N)nc32)C[C@H](O)[C@H]1CO [active = Z-AUC below -0.8 in all three lines] was Potency 4176 nM (falling, partial curve, poor fit). With OCc1ccc(-c2nn(Cc3ccccc3)c3ccccc23)o1 [active = Z-AUC below -0.8 in all three lines] the assay gave Potency 2957 nM (falling, full curve).

CN(C)C(=O)C(CCN1CCC(O)(c2ccc(Cl)cc2)CC1)(c1ccccc1)c1ccccc1 [active = Z-AUC below -0.8 in all three lines] read Potency 18654 nM (falling, partial curve). Cc1ccc(NC(=O)c2cccc(N(C)C)c2)cc1NC(=O)c1ccc(O)cc1 [active = Z-AUC below -0.8 in all three lines] read Potency 37221 nM (falling, single point). For CCn1c(-c2nonc2N)nc2cnc(Oc3cccc(NC(=O)c4ccc(OCCN5CCOCC5)cc4)c3)cc21 [active = Z-AUC below -0.8 in all three lines] the result was Potency 9350 nM (falling, full curve, poor fit). C#Cc1cccc(Nc2ncnc3cc(OCCOC)c(OCCO)cc23)c1 [active = Z-AUC below -0.8 in all three lines] gave Potency 263.5 nM (falling, partial curve).

NC(=O)c1c(OCc2c(F)cc(Br)cc2F)nsc1NC(=O)NCCCCN1CCCC1 [active = Z-AUC below -0.8 in all three lines] gave Potency 2348 nM (falling, full curve). Result for CCOC(=O)Nc1ccc(NCc2ccc(F)cc2)cc1N was Potency 16626 nM (falling, partial curve). CC(C(=O)O)c1ccc2c(c1)CC(=O)c1ccccc1S2 (stereo not shown) [active = Z-AUC below -0.8 in all three lines] read Potency 3722 nM (falling, full curve). For C=CCNc1c(O)cc2c(O)c1C[C@@H](C)C[C@H](OC)[C@@H](O)[C@@H](C)C=C(C)[C@H](OC(N)=O)[C@@H](OC)C=CC=C(C)C(=O)N2 [active = Z-AUC below -0.8 in all three lines] the result was Potency 3317 nM (falling, full curve).

CC[C@H](C)n1cc(C)c2c(C(=O)NCc3c(C)cc(C)[nH]c3=O)cc(-c3ccc(N4CCNCC4)nc3)cc21 [active = Z-AUC below -0.8 in all three lines] gave Potency 14817 nM (falling, partial curve). With c1cc(CN2CCCNCCNCCCNCC2)ccc1CN1CCCNCCNCCCNCC1 [active = Z-AUC below -0.8 in all three lines] the assay gave Potency 37221 nM (falling, single point). CC1(C)CNc2cc(NC(=O)c3cccnc3NCc3ccncc3)ccc21 [active = Z-AUC below -0.8 in all three lines] read Potency 2635 nM. COc1cc(N2CCC(C(N)=O)CC2)ccc1Nc1nc(N)c(Cl)c(Nc2ccccc2S(=O)(=O)C(C)C)n1 [active = Z-AUC below -0.8 in all three lines] gave Potency 2348 nM (falling, full curve).

CC[C@H]1C=CC=CC[C@@H](C)[C@H](O)[C@@](C)(O)C(=O)[C@@H](C)[C@H](O)[C@@H](C)C(=O)[C@@H](C)[C@H](O)[C@@H](C)C=CC(=O)O[C@@H]2[C@@H](C)[C@H](CC1)O[C@]1(CC[C@H](C)[C@H](C[C@@H](C)O)O1)[C@H]2C read Potency 2.957 nM (falling, full curve). With CN(C)c1ccc(-c2nc3ncc(Cl)c(N4CCN(CC(=O)Nc5nccs5)CC4)c3[nH]2)cc1 [active = Z-AUC below -0.8 in all three lines] the assay gave Potency 6619 nM (falling, full curve).

The last 2 entries again:

With CC[C@H]1C=CC=CC[C@@H](C)[C@H](O)[C@@](C)(O)C(=O)[C@@H](C)[C@H](O)[C@@H](C)C(=O)[C@@H](C)[C@H](O)[C@@H](C)C=CC(=O)O[C@@H]2[C@@H](C)[C@H](CC1)O[C@]1(CC[C@H](C)[C@H](C[C@@H](C)O)O1)[C@H]2C the assay gave Potency 2.957 nM (falling, full curve).
With CN(C)c1ccc(-c2nc3ncc(Cl)c(N4CCN(CC(=O)Nc5nccs5)CC4)c3[nH]2)cc1 [active = Z-AUC below -0.8 in all three lines] the assay gave Potency 6619 nM (falling, full curve).

The results are deposited in PubChem (AID1963991; NCATS, 2024).